Results as given in patent publication US20170355771A1 (Biogen, published 2017).
Results are given in words; binding and its absence hold for the method and conditions named. Some results given as binding are weak or reduced against the parent protein; the word gives no strength.

By UniProt entry, the sequences of proteins in these tests, tags left out. Where a name states a change or a piece, a line headed by the entry shows the natural chain unless it says otherwise.
UniProt P08514: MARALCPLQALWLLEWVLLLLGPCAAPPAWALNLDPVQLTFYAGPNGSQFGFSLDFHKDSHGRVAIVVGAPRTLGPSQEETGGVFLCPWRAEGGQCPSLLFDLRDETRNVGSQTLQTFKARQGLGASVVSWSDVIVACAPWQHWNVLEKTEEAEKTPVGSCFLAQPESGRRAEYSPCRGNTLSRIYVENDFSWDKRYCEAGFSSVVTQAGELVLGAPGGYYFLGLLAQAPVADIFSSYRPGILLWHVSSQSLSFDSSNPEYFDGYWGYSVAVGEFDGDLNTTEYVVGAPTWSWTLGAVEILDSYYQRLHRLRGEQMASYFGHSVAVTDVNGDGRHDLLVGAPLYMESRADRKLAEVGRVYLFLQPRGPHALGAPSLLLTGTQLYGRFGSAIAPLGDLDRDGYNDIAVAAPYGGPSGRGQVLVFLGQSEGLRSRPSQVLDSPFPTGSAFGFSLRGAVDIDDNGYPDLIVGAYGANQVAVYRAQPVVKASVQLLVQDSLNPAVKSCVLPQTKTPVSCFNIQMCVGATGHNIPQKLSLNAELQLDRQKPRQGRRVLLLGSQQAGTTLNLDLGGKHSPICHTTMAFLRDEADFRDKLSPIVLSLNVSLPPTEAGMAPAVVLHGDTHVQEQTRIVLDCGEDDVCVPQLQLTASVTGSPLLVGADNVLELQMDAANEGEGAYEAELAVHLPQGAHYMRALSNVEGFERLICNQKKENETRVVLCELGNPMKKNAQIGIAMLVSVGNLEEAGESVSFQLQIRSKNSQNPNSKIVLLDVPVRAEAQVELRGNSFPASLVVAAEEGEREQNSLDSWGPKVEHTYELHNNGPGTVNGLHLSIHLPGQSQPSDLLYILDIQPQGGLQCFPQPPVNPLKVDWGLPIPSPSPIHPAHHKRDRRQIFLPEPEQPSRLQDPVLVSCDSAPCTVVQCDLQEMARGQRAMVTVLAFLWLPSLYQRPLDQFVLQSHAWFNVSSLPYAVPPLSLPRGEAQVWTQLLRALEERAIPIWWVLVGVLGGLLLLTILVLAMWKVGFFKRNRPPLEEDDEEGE

Biological target: α subunit of GPIIb/IIIa (GPIIb) (human) (UniProt P08514)
Experiment: characterization of hybridoma supernatant (subunit specificity assay)

B1: murine anti-GPIIb/IIIa antibody 34D10 (antibody, V domains shown)
VH: EVKLVESGGGLVKPGGSLKLSCAASGFTFSAYAMSWVRQTPEKRLEWVASISSGGTTYYPDSVKRRFTISRDNARNILYLQMSSLRSEDTAMYYCTRGGDYGYALDYWGQGTSVTVSS
VL: ENVLTQSPAIMSASLGEKVTMSCRASSSVNYMYWYQQKSDASPKLWIYYTSNLAPGVPARFSGSGSGNSYSLTISSMEGEDAATYYCQQFSSSPWTFGGGTKLEIK
In the case of B1, the binding is reported as “binds”.
